According to paper PMC10778189:
Results are given in words; binding and its absence hold for the method and conditions named. Some results given as binding are weak or reduced against the parent protein; the word gives no strength.

Chains of the proteins cited; added tags and fusions are not shown. Residues count along the entry.
UniProt P62812, residues 28-455: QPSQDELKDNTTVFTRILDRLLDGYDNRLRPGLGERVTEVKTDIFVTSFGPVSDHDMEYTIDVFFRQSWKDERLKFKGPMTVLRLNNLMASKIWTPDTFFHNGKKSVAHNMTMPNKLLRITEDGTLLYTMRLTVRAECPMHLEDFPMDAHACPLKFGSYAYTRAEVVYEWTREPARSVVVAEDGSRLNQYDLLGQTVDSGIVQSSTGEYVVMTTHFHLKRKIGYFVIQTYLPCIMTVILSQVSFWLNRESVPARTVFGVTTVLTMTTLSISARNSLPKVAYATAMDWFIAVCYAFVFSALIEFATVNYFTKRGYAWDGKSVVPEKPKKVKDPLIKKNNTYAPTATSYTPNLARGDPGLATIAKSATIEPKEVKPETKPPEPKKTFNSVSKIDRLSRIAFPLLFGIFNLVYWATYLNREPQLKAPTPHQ
UniProt P63137, residues 26-512: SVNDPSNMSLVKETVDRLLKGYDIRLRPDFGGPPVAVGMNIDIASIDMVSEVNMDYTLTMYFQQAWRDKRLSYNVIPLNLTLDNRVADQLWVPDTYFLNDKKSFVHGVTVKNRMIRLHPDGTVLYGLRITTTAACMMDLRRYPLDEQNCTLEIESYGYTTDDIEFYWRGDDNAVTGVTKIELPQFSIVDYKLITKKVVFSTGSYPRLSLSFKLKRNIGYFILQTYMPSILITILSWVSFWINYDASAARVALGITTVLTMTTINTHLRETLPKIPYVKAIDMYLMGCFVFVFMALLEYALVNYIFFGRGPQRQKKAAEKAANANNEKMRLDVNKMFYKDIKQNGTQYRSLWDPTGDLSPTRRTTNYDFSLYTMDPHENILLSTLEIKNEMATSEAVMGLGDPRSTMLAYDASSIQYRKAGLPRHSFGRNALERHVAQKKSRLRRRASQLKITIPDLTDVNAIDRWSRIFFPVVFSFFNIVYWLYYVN
UniProt Q69ZK9, residues 15-836: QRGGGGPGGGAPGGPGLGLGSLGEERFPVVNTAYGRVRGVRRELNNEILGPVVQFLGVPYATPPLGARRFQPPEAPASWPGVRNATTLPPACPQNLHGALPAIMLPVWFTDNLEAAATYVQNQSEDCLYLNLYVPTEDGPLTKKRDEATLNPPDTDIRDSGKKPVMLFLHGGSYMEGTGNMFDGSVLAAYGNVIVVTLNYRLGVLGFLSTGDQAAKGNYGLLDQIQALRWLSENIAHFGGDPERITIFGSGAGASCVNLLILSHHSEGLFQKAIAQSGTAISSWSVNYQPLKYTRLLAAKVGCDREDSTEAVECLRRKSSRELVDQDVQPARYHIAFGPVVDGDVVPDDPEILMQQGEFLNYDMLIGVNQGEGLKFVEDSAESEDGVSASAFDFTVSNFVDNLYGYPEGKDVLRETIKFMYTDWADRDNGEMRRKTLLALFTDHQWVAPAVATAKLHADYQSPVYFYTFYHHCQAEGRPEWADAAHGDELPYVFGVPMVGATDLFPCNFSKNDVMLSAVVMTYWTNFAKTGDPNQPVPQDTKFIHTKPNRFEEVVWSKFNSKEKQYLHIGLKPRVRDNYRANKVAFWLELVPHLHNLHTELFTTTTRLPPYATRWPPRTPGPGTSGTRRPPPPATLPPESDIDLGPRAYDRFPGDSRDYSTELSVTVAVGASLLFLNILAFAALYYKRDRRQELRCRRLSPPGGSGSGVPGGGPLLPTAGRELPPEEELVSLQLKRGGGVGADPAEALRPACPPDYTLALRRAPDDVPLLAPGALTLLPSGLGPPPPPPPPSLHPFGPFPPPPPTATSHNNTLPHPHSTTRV

Key:
[1] = biological target: GABAA receptor α1 subunit (Gabra1) (mouse (endogenous in hippocampus and olfactory bulb)) (UniProt P62812); test: native gel or EMSA; BN-PAGE of native hippocampal and olfactory bulb lysates, transferred to PVDF and immuno-stained for α1, β2/3 and Nlgn2; bands at 680 kDa and 450 kDa
[2] = biological target: T1, GABAA receptor α5 subunit (Gabra5) (mouse (endogenous in hippocampus and olfactory bulb)) (UniProt Q8BHJ7); test: native gel or EMSA; BN-PAGE (NativePAGE 4-16% Bis-Tris, 4 °C) of 1% MNG extracts of mouse hippocampus and olfactory bulb; each lane cut into 50 pieces and read by mass spectrometry; co-migration of abundance profiles
T1 sequence: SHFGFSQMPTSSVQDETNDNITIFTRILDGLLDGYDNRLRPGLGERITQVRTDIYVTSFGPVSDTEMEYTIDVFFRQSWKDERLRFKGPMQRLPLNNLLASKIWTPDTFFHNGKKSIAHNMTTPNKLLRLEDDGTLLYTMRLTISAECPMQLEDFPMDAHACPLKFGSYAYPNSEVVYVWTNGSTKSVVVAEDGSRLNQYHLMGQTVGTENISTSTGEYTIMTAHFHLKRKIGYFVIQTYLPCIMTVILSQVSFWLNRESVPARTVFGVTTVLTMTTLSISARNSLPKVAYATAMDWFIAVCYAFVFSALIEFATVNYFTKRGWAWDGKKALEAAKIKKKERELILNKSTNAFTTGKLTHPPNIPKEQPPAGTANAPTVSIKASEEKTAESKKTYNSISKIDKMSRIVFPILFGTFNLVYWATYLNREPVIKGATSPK

[3] = biological target: T2, GABAA receptor γ2 subunit (mouse (endogenous in hippocampus and olfactory bulb)) (UniProt P22723); test: as above
T2 sequence: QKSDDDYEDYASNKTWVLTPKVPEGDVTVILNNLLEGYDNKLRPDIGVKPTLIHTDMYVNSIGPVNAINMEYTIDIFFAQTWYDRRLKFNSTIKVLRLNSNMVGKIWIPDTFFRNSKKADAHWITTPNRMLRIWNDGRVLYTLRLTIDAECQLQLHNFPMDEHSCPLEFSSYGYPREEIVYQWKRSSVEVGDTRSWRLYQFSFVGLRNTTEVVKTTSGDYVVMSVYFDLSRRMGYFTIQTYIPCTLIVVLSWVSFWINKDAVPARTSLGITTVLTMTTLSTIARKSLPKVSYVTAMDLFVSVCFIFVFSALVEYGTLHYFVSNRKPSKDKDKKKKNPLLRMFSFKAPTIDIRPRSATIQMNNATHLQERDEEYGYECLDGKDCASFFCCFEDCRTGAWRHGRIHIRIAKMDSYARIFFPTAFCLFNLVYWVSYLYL

[4] = biological target: GABAA receptor β2 subunit (mouse (endogenous in hippocampus and olfactory bulb)) (UniProt P63137); test: as above

Measured: binding

Neuroligin 2 (Nlgn2) (from UniProt Q69ZK9 15-836)
binds: all assays above
